Values quoted from earlier work in US20150368203A1, “PHARMACEUTICAL FORMULATIONS CONTAINING IPIDACRINE AND THEIR USE FOR THE TREATMENT OF DISORDERS OF POTENCY AND DISORDERS OF OTHER FORMS OF SEXUAL ACTIVITY” (Limited Liability Company "KONSORTSIUM-PIK", priority 2012, published 2015).
For at least one compound, name, drawing or mass did not settle the structure.

Test system: ovariectomized, hypoestrogenic rats
Details: rat, in vivo; cited from earlier work

## CC(=O)OCC[N+](C)(C)C [acetylcholine]
  sexual receptivity of the animals: enhance the sexual receptivity
